No constants are given. Whether binding was seen depends on the method and setting. Binding can be weak; no strength is given. Sequences can lack the tags named with a protein. For part of these data: Binding seen in cells or lysates may run through a third protein.
Legend:
[1] = target: T1, TGB1-YFPc (TGB1 fused with the C-terminal half of YFP, 35S promoter) (Barley stripe mosaic virus) (UniProt P04867); assay: split reporter; BiFC, YFPn and YFPc fusions under the 35S promoter co-expressed in N. benthamiana leaves by agroinfiltration, confocal microscopy at 3 dpi
T1 sequence: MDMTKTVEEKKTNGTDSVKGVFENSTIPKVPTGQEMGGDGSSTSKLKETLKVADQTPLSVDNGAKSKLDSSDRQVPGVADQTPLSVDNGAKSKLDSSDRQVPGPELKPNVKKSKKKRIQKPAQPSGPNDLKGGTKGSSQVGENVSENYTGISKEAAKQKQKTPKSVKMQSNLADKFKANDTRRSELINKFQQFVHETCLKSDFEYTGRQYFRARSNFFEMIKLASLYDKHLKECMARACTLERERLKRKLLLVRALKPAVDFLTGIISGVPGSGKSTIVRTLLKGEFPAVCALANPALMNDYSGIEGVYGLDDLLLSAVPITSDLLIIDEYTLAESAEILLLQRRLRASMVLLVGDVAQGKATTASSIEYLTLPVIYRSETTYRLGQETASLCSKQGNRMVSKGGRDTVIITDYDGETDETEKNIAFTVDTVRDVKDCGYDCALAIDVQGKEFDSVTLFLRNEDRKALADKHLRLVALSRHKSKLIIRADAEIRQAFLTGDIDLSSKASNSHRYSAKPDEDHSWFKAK

[2] = target: BD-γb (γb fused to the Gal4 DNA binding domain) (Barley stripe mosaic virus); assay: two-hybrid; Gal4 AD and BD fusions in Y187 or Gold yeast strains, mated, spotted in 10-fold dilutions on SD/-Trp-Leu and SD/-Trp-Leu-His-Ade (with X-α-Gal), 30°C
[3] = target: GST-γb_(1-85) (Barley stripe mosaic virus); assay: pull-down; GST pull-down, 5 μg of GST- and His-tagged proteins in 600 μL binding buffer (50 mM Tris-HCl pH 8.0, 100 mM NaCl, 0.6% Triton X-100) 3 h at 4°C, with or without 10 μg RNase A, washes with 600 mM NaCl, Western blot with anti-His or anti-GST; both purified
[4] = target: GST-γb (Barley stripe mosaic virus); assay: as above
[5] = target: γb-3xFlag (BSMV γb with a C-terminal 3xFlag epitope, expressed from RNAγ_(γb-3xFlag)) (Barley stripe mosaic virus); assay: co-IP; extract of BSMV-infected N. benthamiana leaves at 3 dpi (25 mM Tris-HCl pH 7.5, 150 mM NaCl, 0.5% NP40, 0.4% Triton X-100), anti-FLAG beads 3 h at 4°C, Western blot with anti-TGB1 or anti-γb; untagged virus as negative control

With “γb-YFPn (γb fused with the N-terminal half of YFP, 35S promoter) (Barley stripe mosaic virus)” the binding [1] was “binds”.

B1: AD-TGB1 with C-terminal deletion to aa 186 (domain or fragment, UniProt P04867 1-186)
chain: MDMTKTVEEKKTNGTDSVKGVFENSTIPKVPTGQEMGGDGSSTSKLKETLKVADQTPLSVDNGAKSKLDSSDRQVPGVADQTPLSVDNGAKSKLDSSDRQVPGPELKPNVKKSKKKRIQKPAQPSGPNDLKGGTKGSSQVGENVSENYTGISKEAAKQKQKTPKSVKMQSNLADKFKANDTRRSEL
B1 was tested, and the binding [2] was “no binding”.

B2: TGB1-His (protein, UniProt P04867 1-528)
chain: MDMTKTVEEKKTNGTDSVKGVFENSTIPKVPTGQEMGGDGSSTSKLKETLKVADQTPLSVDNGAKSKLDSSDRQVPGVADQTPLSVDNGAKSKLDSSDRQVPGPELKPNVKKSKKKRIQKPAQPSGPNDLKGGTKGSSQVGENVSENYTGISKEAAKQKQKTPKSVKMQSNLADKFKANDTRRSELINKFQQFVHETCLKSDFEYTGRQYFRARSNFFEMIKLASLYDKHLKECMARACTLERERLKRKLLLVRALKPAVDFLTGIISGVPGSGKSTIVRTLLKGEFPAVCALANPALMNDYSGIEGVYGLDDLLLSAVPITSDLLIIDEYTLAESAEILLLQRRLRASMVLLVGDVAQGKATTASSIEYLTLPVIYRSETTYRLGQETASLCSKQGNRMVSKGGRDTVIITDYDGETDETEKNIAFTVDTVRDVKDCGYDCALAIDVQGKEFDSVTLFLRNEDRKALADKHLRLVALSRHKSKLIIRADAEIRQAFLTGDIDLSSKASNSHRYSAKPDEDHSWFKAK
In the case of B2, the binding [3] is reported as “binds” and the binding [4] is reported as “binds”.

B3: BSMV TGB1 (untagged, made during BSMV infection) (protein, UniProt P04867 1-528)
chain: MDMTKTVEEKKTNGTDSVKGVFENSTIPKVPTGQEMGGDGSSTSKLKETLKVADQTPLSVDNGAKSKLDSSDRQVPGVADQTPLSVDNGAKSKLDSSDRQVPGPELKPNVKKSKKKRIQKPAQPSGPNDLKGGTKGSSQVGENVSENYTGISKEAAKQKQKTPKSVKMQSNLADKFKANDTRRSELINKFQQFVHETCLKSDFEYTGRQYFRARSNFFEMIKLASLYDKHLKECMARACTLERERLKRKLLLVRALKPAVDFLTGIISGVPGSGKSTIVRTLLKGEFPAVCALANPALMNDYSGIEGVYGLDDLLLSAVPITSDLLIIDEYTLAESAEILLLQRRLRASMVLLVGDVAQGKATTASSIEYLTLPVIYRSETTYRLGQETASLCSKQGNRMVSKGGRDTVIITDYDGETDETEKNIAFTVDTVRDVKDCGYDCALAIDVQGKEFDSVTLFLRNEDRKALADKHLRLVALSRHKSKLIIRADAEIRQAFLTGDIDLSSKASNSHRYSAKPDEDHSWFKAK
With B3 the binding [5] was “binds”.

B4: AD-TGB1 (TGB1 fused to the Gal4 activation domain) (protein, UniProt P04867 1-528)
chain: MDMTKTVEEKKTNGTDSVKGVFENSTIPKVPTGQEMGGDGSSTSKLKETLKVADQTPLSVDNGAKSKLDSSDRQVPGVADQTPLSVDNGAKSKLDSSDRQVPGPELKPNVKKSKKKRIQKPAQPSGPNDLKGGTKGSSQVGENVSENYTGISKEAAKQKQKTPKSVKMQSNLADKFKANDTRRSELINKFQQFVHETCLKSDFEYTGRQYFRARSNFFEMIKLASLYDKHLKECMARACTLERERLKRKLLLVRALKPAVDFLTGIISGVPGSGKSTIVRTLLKGEFPAVCALANPALMNDYSGIEGVYGLDDLLLSAVPITSDLLIIDEYTLAESAEILLLQRRLRASMVLLVGDVAQGKATTASSIEYLTLPVIYRSETTYRLGQETASLCSKQGNRMVSKGGRDTVIITDYDGETDETEKNIAFTVDTVRDVKDCGYDCALAIDVQGKEFDSVTLFLRNEDRKALADKHLRLVALSRHKSKLIIRADAEIRQAFLTGDIDLSSKASNSHRYSAKPDEDHSWFKAK
In the case of B4, the binding [2] is reported as “binds”.

B5: AD-TGB1 with C-terminal deletion to aa 113 (domain or fragment, UniProt P04867 1-113)
chain: MDMTKTVEEKKTNGTDSVKGVFENSTIPKVPTGQEMGGDGSSTSKLKETLKVADQTPLSVDNGAKSKLDSSDRQVPGVADQTPLSVDNGAKSKLDSSDRQVPGPELKPNVKKS
B5 was tested, and the binding [2] was “no binding”.

B6: AD-TGB1 with deletion of the N-terminal 105 aa (domain or fragment, UniProt P04867 122-528)
chain: AQPSGPNDLKGGTKGSSQVGENVSENYTGISKEAAKQKQKTPKSVKMQSNLADKFKANDTRRSELINKFQQFVHETCLKSDFEYTGRQYFRARSNFFEMIKLASLYDKHLKECMARACTLERERLKRKLLLVRALKPAVDFLTGIISGVPGSGKSTIVRTLLKGEFPAVCALANPALMNDYSGIEGVYGLDDLLLSAVPITSDLLIIDEYTLAESAEILLLQRRLRASMVLLVGDVAQGKATTASSIEYLTLPVIYRSETTYRLGQETASLCSKQGNRMVSKGGRDTVIITDYDGETDETEKNIAFTVDTVRDVKDCGYDCALAIDVQGKEFDSVTLFLRNEDRKALADKHLRLVALSRHKSKLIIRADAEIRQAFLTGDIDLSSKASNSHRYSAKPDEDHSWFKAK
B6 was tested, and the binding [2] was “no binding”.

B7: AD-TGB1 aa 1–491 (domain or fragment, UniProt P04867 1-491)
chain: MDMTKTVEEKKTNGTDSVKGVFENSTIPKVPTGQEMGGDGSSTSKLKETLKVADQTPLSVDNGAKSKLDSSDRQVPGVADQTPLSVDNGAKSKLDSSDRQVPGPELKPNVKKSKKKRIQKPAQPSGPNDLKGGTKGSSQVGENVSENYTGISKEAAKQKQKTPKSVKMQSNLADKFKANDTRRSELINKFQQFVHETCLKSDFEYTGRQYFRARSNFFEMIKLASLYDKHLKECMARACTLERERLKRKLLLVRALKPAVDFLTGIISGVPGSGKSTIVRTLLKGEFPAVCALANPALMNDYSGIEGVYGLDDLLLSAVPITSDLLIIDEYTLAESAEILLLQRRLRASMVLLVGDVAQGKATTASSIEYLTLPVIYRSETTYRLGQETASLCSKQGNRMVSKGGRDTVIITDYDGETDETEKNIAFTVDTVRDVKDCGYDCALAIDVQGKEFDSVTLFLRNEDRKALADKHLRLVALSRHKSKLIIRADA
With B7 the binding [2] was “binds”.

— PMC7419011
